In paper PMC3008712:
No constants are given. Whether binding was seen depends on the method and setting. Some binding calls cover weakened binding; strength is not graded here.

Tests used:
[1] = molecular target: recombinant human γD-crystallin (human) (UniProt P07320); assay: non-reducing SDS-PAGE; 1 mg/ml HGDC in 5 mM sodium phosphate pH 7.0, not irradiated (0 min); 15% gel, sample buffer without β-mercaptoethanol; both purified
[2] = molecular target: T1, recombinant human γD-crystallin (human), P07320; assay: non-reducing SDS-PAGE; 1 mg/ml HGDC in 5 mM sodium phosphate pH 7.0, UV-C irradiated (254 nm, 1,850 μW/cm^2) for 10-60 min; 15% gel, sample buffer without β-mercaptoethanol; band intensities by Image-J; both purified; conditions: remark: other sources report otherwise
T1 chain: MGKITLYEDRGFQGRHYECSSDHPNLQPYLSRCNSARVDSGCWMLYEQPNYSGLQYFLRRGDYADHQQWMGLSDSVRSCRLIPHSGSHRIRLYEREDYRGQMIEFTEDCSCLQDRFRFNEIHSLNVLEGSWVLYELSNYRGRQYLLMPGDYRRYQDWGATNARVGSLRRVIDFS

Molecule: recombinant human γD-crystallin (from UniProt P07320 1-174)
- binding [1]: binds weakly

B1: recombinant human γD-crystallin, P07320 1-174 (natural protein)
chain: MGKITLYEDRGFQGRHYECSSDHPNLQPYLSRCNSARVDSGCWMLYEQPNYSGLQYFLRRGDYADHQQWMGLSDSVRSCRLIPHSGSHRIRLYEREDYRGQMIEFTEDCSCLQDRFRFNEIHSLNVLEGSWVLYELSNYRGRQYLLMPGDYRRYQDWGATNARVGSLRRVIDFS
- binding [2]: binds
